Measured values reported in paper PMC5974431.
Where a chain is given by its changes, count along the chain named. Results are given in words; binding and its absence hold for the method and conditions named. Binding seen in cells or lysates may run through a third protein. Some binding calls cover weakened binding; strength is not graded here. Where a sequence is shown, tags or fusion partners need not be part of it.

The chains behind the UniProt entries cited, without tags or fusion partners.
UniProt Q96AP0: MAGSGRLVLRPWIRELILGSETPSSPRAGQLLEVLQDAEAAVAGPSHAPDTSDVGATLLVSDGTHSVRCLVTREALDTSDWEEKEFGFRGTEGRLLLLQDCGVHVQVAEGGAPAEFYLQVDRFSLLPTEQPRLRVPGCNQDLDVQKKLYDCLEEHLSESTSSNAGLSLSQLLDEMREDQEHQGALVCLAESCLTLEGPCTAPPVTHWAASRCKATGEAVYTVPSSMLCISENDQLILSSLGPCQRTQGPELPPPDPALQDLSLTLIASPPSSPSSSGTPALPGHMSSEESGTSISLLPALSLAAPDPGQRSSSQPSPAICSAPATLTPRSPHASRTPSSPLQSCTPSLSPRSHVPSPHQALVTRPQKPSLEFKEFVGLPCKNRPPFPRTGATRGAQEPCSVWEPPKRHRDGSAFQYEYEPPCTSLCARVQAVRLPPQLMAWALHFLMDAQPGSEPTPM
UniProt P54274: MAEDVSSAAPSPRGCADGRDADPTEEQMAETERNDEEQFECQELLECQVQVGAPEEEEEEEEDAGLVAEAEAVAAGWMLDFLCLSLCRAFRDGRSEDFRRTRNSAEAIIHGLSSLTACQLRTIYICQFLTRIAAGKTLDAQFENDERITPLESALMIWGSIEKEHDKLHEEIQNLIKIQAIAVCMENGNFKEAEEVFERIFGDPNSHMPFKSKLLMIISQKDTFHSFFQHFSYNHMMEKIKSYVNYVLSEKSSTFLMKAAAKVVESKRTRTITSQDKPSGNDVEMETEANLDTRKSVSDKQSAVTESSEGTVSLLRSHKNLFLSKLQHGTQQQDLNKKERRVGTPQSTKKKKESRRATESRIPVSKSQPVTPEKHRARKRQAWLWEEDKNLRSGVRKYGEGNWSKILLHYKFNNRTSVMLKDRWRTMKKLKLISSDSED

Legend:
Assay in all cases: co-IP; HEK 293T cells cotransfected with 5 μg of each plasmid, lysed after 24 h (lysis buffer with 400 mM NaCl, 1% Triton X-100, 0.1% SDS, then an equal amount of water); supernatants incubated overnight at 4°C with anti-FLAG M2 magnetic beads or anti-Myc 9E10; immunoblot; the co-precipitated TRF1, TRF2 or TPP1 divided by the TIN2 precipitated and normalised to TIN2S
[1] = molecular target: T1, flag-2×HA-TIN2L-S396A (human) (UniProt Q9BSI4)
T1 sequence: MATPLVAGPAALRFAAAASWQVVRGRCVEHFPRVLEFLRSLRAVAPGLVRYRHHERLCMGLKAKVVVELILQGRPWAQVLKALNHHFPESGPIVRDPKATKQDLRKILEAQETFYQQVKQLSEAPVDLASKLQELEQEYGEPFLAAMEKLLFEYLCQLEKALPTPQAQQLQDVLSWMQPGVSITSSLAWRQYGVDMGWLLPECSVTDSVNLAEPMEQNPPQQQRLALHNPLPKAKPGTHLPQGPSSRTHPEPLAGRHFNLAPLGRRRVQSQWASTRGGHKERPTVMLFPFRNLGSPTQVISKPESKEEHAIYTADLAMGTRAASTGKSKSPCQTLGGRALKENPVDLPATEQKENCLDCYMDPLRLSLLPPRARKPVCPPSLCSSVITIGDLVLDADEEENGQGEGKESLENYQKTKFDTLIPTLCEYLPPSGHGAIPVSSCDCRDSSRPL

flag-2×HA-TIN2S (human) = molecular target: T2, flag-2×HA-TIN2S (human) (UniProt Q9BSI4)
T2 sequence: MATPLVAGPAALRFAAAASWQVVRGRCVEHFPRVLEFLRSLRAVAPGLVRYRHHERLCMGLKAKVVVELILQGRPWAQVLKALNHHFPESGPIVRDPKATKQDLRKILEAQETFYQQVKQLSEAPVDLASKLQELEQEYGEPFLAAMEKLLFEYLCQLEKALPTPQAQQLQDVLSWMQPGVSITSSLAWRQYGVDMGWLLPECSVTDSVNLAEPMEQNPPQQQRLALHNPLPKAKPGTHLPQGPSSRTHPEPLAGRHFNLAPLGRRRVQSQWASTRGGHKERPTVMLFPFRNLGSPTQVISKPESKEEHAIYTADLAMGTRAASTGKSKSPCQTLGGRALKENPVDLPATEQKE

[2] = molecular target: T3, flag-2×HA-TIN2S-R282H (human) (UniProt Q9BSI4)
T3 sequence: T2 sequence with R282H

[3] = molecular target: T4, flag-2×HA-TIN2L-R282H (human) (UniProt Q9BSI4)
T4 sequence (chain, R282H did not affect TIN2L phosphorylation (Phos-tag)): T1 sequence with R282H, A396S

binding [1]	binding (flag-2×HA-TIN2S (human))	binding [2]	binding [3]	Substance
binds	binds	binds		myc-TPP1 (from UniProt Q96AP0 1-458)
binds	binds	binds	binds	myc-TRF1 (from UniProt P54274 1-439)
